From PubChem BioAssay AID318 (DTP/NCI, 2004)
The list is a part of this screen's results and no random one: it covers a few groups of compounds. Not every dose and run of a compound is shown. T/C: endpoint of the treated group in % of that of the vehicle group. Where survival is the endpoint, the PubChem record calls one and a half times the control and up active, and a quarter to a half above the control has no call in these data; cut-offs in other NCI protocols can differ. Some entries show no survivor count and are marked so; the dose need not have been tolerated. Schedules are NCI's codes, taken here to give the interval after Q, in days (D) or hours (H), and the number of doses after X. Marks such as (2×) count equal records among those shown. Some entries were tested several times; their values stand side by side, smallest first.

Test system: BDF1 mice, P815 leukemia ip, survival T/C
Test: NCI In Vivo Anticancer Drug Screen. Data for tumor model P815 Mast Cell Leukemia (Ascitic) (intraperitoneal) in B6D2F1 (BDF1) mice
Settings: T/C endpoint: survival time, mean or median, schedule: Q01DX010 (ip), vehicle: saline, higher T/C = longer survival
Procedure: The antitumor activity of compounds was measured in mice bearing transplantable tumors. Survival or tumor size were measured and the results are expressed as the measurement made in the treated group (T) divided by the measurement made in the vehicle treated control group (C). The tumor model used in this assay is P815 Mast Cell Leukemia (Ascitic) (intraperitoneal) in B6D2F1 (BDF1) mice

With `NC(Cc1cccc(N(CCCl)CCCl)c1)C(=O)O` (centres undefined) as the compound, how does the T/C (dose: 0.63 mg/kg/injection) read?
The T/C was 116 [survivor count not shown] and 155 % of control [survivor count not shown].

What about the T/C (dose: 1.25 mg/kg/injection) of the same compound?
The T/C was 144 [survivor count not shown] and 172 % of control [survivor count not shown].

And the T/C (dose: 2.5 mg/kg/injection)?
The T/C was 172 [survivor count not shown] and 261 % of control [survivor count not shown].

What about the T/C (dose: 5.0 mg/kg/injection) of the same compound?
The T/C was 105 [survivor count not shown] and 205 % of control [survivor count not shown].

Which results are given for `NC(Cc1ccccc1N(CCCl)CCCl)C(=O)O` (centres undefined)?
T/C (dose: 0.25 mg/kg/injection): 138 % of control [survivor count not shown]; T/C (dose: 0.5 mg/kg/injection): 194 % of control [survivor count not shown]; T/C (dose: 1.0 mg/kg/injection): 150 % of control [survivor count not shown]; T/C (dose: 2.0 mg/kg/injection): 100 % of control [survivor count not shown]

Which T/C (dose: 31.3 mg/kg/injection) does the source give for `NC1CCCCC1.NP(=O)(O)N(CCCl)CCCl` here?
The T/C was 172 % of control [survivor count not shown].

What about the T/C (dose: 62.5 mg/kg/injection) of the same compound?
Its T/C is 152 % of control [survivor count not shown].

Which T/C (dose: 1.25 mg/kg/injection) does the source give for `ClCCN(CCCl)Cc1nc2ccccc2[nH]1` here?
The T/C was 111 % of control [survivor count not shown].

And the T/C (dose: 2.5 mg/kg/injection)?
The T/C was 120 [survivor count not shown] and 133 % of control [survivor count not shown].

And the T/C (dose: 5.0 mg/kg/injection)?
The T/C was 150 [survivor count not shown] and 155 % of control [survivor count not shown].

And the T/C (dose: 10.0 mg/kg/injection)?
Its T/C is 120 [survivor count not shown] and 166 % of control [survivor count not shown].

`CC(C(=O)O)N(CCCl)CCCl` (centres undefined) was tested. Which T/C (dose: 0.5 mg/kg/injection) did it give?
The T/C was 122 % of control [survivor count not shown] (2×).

And the T/C (dose: 1.0 mg/kg/injection)?
Its T/C is 138 % of control [survivor count not shown] (2×).

What about the T/C (dose: 2.0 mg/kg/injection) of the same compound?
The T/C was 194 [survivor count not shown] and 272 % of control [survivor count not shown].

What about the T/C (dose: 4.0 mg/kg/injection) of the same compound?
Its T/C is 261 % of control [survivor count not shown].

`O=C(O)CN(CCCl)CCCl` was tested. Which T/C (dose: 0.63 mg/kg/injection) did it give?
The T/C was 116 [survivor count not shown] and 127 % of control [survivor count not shown].

What about the T/C (dose: 1.25 mg/kg/injection) of the same compound?
The T/C was 166 [survivor count not shown] and 216 % of control [survivor count not shown].

What about the T/C (dose: 2.5 mg/kg/injection) of the same compound?
Its T/C is 300 [survivor count not shown] and 333 % of control [survivor count not shown].

What about the T/C (dose: 5.0 mg/kg/injection) of the same compound?
The T/C was 88 % of control [survivor count not shown].

For `ClCCNCCCl`, which T/C (dose: 18.8 mg/kg/injection) is on record?
Its T/C is 110 [survivor count not shown] and 115 % of control [survivor count not shown].

And the T/C (dose: 37.5 mg/kg/injection)?
Its T/C is 113 % of control [survivor count not shown] (2×).
